Only a part is listed here, and it is no random draw. Single values of this set are uncertain.
compound: COC(=O)/C=C/c1ccccc1 [methyl cinnamate]; assay: log2 ratio of iodoacetamide-alkyne labeling of the cysteine site, DMSO over compound (competition); higher = stronger covalent engagement of the cysteine by the compound, active = 1 or more; details: 500 µM; treatment time 1 h; system: HEK293T cell lysate
Procedure, shortened: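 For each cysteine, the log2 competition ratio is mean control-channel reporter intensity over mean compound-channel reporter intensity. HEK293T lysate (2 mg/mL) was exposed to vehicle or electrophile (500 µM, 1 h, ambient temperature), labelled with iodoacetamide alkyne (1 h), clicked to sCIP-TMT reagents, digested overnight with trypsin at 37 °C, streptavidin-enriched and analysed by Orbitrap Eclipse LC-MS/MS with FAIMS and FragPipe. Cysteines quantified in only one of three replicates, each with duplicate channels, were excluded.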

Amino acid sequences for entries named in this document (tags omitted). A change or cut given only in a name is not applied to a line headed by its entry.
UniProt Q9NZJ9: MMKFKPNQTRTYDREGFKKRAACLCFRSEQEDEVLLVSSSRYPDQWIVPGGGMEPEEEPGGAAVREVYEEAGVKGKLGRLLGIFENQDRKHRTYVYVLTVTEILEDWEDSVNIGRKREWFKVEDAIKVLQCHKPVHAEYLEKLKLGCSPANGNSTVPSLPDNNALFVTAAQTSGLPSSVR
UniProt Q9NZM3: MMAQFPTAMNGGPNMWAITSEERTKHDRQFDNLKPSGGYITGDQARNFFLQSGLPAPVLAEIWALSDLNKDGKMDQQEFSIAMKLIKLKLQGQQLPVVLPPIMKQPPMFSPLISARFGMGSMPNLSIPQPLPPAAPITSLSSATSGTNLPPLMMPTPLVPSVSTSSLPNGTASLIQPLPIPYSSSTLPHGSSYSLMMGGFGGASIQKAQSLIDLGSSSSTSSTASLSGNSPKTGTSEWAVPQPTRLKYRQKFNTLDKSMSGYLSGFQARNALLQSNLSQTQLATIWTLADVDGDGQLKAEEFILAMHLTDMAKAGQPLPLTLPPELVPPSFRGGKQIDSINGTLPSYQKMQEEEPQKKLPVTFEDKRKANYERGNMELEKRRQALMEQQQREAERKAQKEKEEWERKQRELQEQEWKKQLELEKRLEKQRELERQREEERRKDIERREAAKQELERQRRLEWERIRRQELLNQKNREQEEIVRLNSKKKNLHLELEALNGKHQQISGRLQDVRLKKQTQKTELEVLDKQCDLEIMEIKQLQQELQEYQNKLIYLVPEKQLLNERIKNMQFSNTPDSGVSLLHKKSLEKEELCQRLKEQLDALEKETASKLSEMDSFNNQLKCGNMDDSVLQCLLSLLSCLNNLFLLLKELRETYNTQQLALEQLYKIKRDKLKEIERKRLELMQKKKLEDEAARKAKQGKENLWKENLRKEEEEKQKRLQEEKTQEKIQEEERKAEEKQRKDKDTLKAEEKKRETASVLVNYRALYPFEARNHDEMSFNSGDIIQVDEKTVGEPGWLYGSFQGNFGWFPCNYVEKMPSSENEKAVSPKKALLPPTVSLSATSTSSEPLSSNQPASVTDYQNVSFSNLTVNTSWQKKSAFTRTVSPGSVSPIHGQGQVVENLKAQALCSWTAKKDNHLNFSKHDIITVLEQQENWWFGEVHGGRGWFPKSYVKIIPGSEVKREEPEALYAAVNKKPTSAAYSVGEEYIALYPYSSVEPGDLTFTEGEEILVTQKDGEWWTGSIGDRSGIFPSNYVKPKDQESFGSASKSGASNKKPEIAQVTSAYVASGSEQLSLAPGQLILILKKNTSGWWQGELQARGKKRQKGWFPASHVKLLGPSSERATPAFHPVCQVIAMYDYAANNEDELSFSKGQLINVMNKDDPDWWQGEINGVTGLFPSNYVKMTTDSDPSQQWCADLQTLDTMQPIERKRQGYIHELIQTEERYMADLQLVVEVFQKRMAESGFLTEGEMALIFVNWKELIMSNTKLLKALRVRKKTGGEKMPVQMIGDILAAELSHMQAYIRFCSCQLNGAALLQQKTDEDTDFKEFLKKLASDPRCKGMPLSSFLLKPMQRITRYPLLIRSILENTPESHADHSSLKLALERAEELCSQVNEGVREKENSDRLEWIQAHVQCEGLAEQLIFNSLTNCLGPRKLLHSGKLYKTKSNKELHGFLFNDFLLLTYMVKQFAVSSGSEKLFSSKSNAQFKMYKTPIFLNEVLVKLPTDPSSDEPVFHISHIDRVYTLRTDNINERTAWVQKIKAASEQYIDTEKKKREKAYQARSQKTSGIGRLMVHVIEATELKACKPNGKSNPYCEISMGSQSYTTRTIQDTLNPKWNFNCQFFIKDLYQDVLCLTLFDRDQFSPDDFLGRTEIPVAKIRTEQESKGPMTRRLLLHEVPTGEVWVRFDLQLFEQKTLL
UniProt Q9UBS0: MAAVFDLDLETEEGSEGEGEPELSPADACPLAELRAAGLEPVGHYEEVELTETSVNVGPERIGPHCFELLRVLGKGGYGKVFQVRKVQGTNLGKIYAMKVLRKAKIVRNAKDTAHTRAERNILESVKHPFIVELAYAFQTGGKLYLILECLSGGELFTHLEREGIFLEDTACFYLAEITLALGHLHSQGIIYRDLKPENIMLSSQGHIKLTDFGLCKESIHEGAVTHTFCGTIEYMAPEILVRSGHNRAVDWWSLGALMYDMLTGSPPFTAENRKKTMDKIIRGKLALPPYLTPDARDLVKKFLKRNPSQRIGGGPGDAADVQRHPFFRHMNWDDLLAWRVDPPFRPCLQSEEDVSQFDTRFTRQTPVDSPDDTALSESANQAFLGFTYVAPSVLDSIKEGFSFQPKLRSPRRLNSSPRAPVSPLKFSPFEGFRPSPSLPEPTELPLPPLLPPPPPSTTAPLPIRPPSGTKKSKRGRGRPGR
UniProt Q9UBT2: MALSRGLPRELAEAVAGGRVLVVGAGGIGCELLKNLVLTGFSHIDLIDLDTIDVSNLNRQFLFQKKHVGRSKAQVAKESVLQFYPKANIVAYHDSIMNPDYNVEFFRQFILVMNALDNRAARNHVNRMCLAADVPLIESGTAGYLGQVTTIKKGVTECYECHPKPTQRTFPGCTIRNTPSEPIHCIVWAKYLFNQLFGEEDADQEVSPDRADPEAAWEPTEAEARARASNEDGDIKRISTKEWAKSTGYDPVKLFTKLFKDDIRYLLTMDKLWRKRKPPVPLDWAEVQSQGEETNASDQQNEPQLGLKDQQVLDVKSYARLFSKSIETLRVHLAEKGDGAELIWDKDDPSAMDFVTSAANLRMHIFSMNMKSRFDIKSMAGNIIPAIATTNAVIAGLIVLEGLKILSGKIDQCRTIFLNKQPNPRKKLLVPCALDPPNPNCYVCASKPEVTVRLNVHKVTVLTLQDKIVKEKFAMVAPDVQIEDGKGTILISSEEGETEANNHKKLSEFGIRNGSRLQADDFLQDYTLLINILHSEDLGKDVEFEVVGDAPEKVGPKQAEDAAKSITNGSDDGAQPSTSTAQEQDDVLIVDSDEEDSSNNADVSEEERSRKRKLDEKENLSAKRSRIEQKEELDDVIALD
UniProt Q9NZW5: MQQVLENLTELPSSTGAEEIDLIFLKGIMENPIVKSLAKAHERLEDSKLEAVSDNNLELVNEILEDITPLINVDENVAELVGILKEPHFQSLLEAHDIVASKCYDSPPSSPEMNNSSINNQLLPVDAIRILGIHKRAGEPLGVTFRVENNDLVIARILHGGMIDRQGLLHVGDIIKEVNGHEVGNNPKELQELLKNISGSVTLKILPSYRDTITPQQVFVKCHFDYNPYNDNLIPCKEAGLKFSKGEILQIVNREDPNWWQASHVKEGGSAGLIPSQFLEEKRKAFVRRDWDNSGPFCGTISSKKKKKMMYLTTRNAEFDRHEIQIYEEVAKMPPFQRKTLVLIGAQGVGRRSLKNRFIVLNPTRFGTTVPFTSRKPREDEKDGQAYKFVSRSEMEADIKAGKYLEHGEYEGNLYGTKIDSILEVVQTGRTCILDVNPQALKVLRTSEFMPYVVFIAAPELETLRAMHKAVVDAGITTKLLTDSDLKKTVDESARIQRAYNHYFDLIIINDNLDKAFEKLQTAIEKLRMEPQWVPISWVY
UniProt Q9NW13: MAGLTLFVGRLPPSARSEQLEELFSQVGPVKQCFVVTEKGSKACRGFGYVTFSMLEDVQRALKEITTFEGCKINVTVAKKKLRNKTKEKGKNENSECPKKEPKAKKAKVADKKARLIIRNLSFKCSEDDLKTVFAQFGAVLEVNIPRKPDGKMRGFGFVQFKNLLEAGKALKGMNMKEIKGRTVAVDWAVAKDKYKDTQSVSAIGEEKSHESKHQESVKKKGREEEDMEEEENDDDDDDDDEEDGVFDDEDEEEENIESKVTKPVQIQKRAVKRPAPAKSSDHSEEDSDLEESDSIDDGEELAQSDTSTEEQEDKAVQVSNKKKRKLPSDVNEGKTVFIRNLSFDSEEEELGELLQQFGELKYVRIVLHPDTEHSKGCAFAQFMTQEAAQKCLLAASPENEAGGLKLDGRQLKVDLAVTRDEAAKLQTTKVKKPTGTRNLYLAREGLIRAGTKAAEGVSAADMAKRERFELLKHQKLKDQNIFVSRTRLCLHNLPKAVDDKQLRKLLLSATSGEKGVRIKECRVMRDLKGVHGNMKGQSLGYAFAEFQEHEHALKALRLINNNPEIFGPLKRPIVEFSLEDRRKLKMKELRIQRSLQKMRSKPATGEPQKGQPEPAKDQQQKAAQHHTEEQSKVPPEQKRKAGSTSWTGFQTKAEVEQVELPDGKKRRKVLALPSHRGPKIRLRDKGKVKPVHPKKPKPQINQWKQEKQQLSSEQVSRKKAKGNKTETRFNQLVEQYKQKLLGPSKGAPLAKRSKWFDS
UniProt Q9P2P1: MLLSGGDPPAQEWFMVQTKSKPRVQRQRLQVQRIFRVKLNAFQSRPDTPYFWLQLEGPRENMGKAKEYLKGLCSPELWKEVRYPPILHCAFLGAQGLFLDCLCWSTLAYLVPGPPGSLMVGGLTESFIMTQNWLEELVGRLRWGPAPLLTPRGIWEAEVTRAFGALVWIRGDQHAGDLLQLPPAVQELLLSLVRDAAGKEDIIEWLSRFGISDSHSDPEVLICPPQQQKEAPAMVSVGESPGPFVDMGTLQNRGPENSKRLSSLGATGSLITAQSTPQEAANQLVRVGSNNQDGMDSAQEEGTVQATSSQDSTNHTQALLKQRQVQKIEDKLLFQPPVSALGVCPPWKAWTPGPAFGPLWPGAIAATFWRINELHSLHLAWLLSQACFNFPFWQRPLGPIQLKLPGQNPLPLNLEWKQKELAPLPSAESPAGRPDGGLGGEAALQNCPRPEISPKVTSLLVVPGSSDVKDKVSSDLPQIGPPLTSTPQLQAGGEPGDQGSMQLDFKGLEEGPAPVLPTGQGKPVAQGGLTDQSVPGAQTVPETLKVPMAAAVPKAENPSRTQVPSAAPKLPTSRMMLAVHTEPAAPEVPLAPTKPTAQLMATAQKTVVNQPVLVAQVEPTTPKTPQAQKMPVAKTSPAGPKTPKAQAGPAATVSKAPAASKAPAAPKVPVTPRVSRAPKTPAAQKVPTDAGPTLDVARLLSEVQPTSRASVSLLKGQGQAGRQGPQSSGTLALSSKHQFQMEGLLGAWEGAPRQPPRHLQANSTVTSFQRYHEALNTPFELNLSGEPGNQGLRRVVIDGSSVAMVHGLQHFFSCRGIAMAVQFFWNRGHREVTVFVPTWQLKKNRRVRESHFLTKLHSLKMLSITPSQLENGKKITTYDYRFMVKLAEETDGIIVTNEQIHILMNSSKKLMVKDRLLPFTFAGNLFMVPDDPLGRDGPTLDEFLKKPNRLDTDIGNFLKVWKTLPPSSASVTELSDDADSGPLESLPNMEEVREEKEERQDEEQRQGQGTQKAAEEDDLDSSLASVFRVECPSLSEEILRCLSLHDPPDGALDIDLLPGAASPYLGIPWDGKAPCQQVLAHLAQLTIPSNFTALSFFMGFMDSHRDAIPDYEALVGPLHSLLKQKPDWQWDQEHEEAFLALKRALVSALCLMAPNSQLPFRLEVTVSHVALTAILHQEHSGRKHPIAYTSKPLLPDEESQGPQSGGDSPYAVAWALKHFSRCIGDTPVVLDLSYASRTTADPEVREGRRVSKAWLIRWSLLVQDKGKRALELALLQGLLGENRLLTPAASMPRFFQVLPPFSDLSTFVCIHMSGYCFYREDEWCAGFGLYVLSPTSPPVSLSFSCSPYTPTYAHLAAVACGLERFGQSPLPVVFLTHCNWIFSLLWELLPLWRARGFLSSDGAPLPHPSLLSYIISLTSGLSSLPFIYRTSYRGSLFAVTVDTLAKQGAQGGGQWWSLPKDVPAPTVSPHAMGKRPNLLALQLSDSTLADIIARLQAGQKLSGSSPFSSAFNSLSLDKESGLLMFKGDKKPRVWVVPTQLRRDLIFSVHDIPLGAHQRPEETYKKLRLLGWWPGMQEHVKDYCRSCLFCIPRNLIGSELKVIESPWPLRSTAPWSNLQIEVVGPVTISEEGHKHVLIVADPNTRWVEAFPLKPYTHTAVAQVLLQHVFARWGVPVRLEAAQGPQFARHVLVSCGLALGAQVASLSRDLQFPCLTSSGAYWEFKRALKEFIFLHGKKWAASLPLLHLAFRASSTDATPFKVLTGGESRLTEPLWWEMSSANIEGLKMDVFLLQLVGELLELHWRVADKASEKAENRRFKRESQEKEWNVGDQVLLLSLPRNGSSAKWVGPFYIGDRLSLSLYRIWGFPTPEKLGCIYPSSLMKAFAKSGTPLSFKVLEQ
UniProt Q9NUQ9: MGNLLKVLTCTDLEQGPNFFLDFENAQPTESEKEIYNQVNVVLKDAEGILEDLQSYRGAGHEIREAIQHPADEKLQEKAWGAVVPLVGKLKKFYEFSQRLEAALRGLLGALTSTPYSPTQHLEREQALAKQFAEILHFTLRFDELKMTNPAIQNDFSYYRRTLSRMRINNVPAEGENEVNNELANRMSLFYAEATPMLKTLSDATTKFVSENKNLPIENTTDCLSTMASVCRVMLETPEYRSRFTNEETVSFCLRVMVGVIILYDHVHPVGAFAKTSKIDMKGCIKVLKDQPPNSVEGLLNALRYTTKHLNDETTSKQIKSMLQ

log2 ratio of iodoacetamide-alkyne labeling, inactive:
DPP3 C147 (UniProt Q9NY33) 0.135
NUDT4 C147 (UniProt Q9NZJ9) 0.0285
ITSN2 C1194 (UniProt Q9NZM3) -0.0951
LARS C100 (UniProt Q9P2J5) 0.317
UniProt Q9UBS0_C348 -0.107
NDRG3 C375 (UniProt Q9UGV2) 0.189
UBA2 C413 (UniProt Q9UBT2) -0.282
UniProt Q9NW64_C27 -0.0314
MPP6 C432 (UniProt Q9NZW5) 0.527
EXOC1 C650 (UniProt Q9NV70) 0.176
TRMT1 C639 (UniProt Q9NXH9) 0.248
LYAR C51 (UniProt Q9NX58) 0.16
RBM28 C378 (UniProt Q9NW13) 0.288
COPG2 C440 (UniProt Q9UBF2) 0.0844
FANCI C56 (UniProt Q9NVI1) 0.0916
TES C412 (UniProt Q9UGI8) -0.0167
PPP4R2 C134 (UniProt Q9NY27) 0.186
SMPD4 C698 (UniProt Q9NXE4) -0.0752
CHD7 C909 (UniProt Q9P2D1) 0.169
ALKBH4 C204 (UniProt Q9NXW9) 0.0209
UniProt Q9P2P1_C1222 0.0104
TMOD3 C231 (UniProt Q9NYL9) 0.137
POLR3E C456 (UniProt Q9NVU0) 0.481
ZNF629 C110 (UniProt Q9UEG4) 0.0652
USP36 C977 (UniProt Q9P275) 0.15
FAM49B C10 (UniProt Q9NUQ9) 0.0684
NXF1 C252 (UniProt Q9UBU9) 0.196
SPATS2L C367 (UniProt Q9NUQ6) -0.218
ZC3H7B C925 (UniProt Q9UGR2) -0.249
MPP6 C236 (UniProt Q9NZW5) 0.0559
MTPAP C412 (UniProt Q9NVV4) 0.246
LARS C248 (UniProt Q9P2J5) -0.108
UniProt Q9NWY4_C152 0.213
C9orf78 C145 (UniProt Q9NZ63) 0.277
DDX56 C298 (UniProt Q9NY93) -0.132
NECAP2 C133 (UniProt Q9NVZ3) 0.397
MTPAP C242 (UniProt Q9NVV4) 0.0686

3 entries drawn at random from those above:
log2 ratio of iodoacetamide-alkyne labeling, inactive:
FANCI C56 (UniProt Q9NVI1) 0.0916
MPP6 C236 (UniProt Q9NZW5) 0.0559
UniProt Q9UBS0_C348 -0.107
